Laboratory results taken from PMC12126495.

Protein sequences, listed by entry. Tags and fused reporters are not part of them.
UniProt P97496: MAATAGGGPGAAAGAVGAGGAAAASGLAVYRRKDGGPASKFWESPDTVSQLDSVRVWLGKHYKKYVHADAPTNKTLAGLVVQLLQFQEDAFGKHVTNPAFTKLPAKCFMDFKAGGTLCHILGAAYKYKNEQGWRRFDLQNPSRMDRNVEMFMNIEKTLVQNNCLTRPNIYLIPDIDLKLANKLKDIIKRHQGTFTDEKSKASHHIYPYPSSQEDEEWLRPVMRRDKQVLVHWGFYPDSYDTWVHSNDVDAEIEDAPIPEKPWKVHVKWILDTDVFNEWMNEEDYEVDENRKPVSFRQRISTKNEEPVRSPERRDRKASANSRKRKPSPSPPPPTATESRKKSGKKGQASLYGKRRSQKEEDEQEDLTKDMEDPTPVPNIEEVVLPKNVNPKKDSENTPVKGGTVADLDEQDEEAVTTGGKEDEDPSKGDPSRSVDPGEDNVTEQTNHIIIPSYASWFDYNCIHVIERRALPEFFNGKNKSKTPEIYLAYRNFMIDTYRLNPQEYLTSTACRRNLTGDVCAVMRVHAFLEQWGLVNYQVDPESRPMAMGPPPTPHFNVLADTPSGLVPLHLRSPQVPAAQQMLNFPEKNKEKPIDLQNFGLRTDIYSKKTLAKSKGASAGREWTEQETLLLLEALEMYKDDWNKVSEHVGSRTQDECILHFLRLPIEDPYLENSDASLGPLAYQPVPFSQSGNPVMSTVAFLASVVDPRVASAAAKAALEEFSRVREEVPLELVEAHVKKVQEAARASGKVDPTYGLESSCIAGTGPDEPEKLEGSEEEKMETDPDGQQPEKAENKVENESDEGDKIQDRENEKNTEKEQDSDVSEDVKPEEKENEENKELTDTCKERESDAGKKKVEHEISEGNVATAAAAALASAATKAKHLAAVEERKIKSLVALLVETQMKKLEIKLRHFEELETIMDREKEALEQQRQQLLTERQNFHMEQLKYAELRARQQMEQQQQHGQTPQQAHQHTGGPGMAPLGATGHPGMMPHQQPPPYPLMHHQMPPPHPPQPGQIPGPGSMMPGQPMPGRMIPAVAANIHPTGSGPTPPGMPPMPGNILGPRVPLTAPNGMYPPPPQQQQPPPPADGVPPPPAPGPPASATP
UniProt Q99JR8: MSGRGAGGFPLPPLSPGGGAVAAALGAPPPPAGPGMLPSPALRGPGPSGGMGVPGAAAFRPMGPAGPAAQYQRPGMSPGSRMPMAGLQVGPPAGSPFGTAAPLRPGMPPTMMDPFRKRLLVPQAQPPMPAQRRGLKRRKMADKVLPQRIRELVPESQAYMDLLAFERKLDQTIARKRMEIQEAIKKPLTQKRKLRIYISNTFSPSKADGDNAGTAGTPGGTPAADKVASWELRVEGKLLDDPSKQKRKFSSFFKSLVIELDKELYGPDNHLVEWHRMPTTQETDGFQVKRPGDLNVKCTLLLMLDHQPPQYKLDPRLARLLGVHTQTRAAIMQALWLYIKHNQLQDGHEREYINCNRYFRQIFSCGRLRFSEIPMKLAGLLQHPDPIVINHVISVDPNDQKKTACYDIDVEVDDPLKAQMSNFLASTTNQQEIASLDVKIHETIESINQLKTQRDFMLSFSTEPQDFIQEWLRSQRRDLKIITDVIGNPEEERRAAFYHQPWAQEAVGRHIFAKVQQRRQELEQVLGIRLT
UniProt Q61312: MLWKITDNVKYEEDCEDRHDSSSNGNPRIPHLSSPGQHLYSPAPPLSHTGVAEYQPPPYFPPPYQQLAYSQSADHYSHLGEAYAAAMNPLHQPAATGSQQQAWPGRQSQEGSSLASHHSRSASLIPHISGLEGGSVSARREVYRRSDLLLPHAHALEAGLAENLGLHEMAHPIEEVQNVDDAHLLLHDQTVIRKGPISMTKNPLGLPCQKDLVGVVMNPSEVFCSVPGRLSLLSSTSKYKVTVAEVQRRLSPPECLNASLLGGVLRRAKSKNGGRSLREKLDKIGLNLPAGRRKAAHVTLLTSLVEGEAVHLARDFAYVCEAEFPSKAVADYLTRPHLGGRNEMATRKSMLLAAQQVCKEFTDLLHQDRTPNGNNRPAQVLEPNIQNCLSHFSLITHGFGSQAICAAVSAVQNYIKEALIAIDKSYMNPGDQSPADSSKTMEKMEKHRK
UniProt Q3TKT4: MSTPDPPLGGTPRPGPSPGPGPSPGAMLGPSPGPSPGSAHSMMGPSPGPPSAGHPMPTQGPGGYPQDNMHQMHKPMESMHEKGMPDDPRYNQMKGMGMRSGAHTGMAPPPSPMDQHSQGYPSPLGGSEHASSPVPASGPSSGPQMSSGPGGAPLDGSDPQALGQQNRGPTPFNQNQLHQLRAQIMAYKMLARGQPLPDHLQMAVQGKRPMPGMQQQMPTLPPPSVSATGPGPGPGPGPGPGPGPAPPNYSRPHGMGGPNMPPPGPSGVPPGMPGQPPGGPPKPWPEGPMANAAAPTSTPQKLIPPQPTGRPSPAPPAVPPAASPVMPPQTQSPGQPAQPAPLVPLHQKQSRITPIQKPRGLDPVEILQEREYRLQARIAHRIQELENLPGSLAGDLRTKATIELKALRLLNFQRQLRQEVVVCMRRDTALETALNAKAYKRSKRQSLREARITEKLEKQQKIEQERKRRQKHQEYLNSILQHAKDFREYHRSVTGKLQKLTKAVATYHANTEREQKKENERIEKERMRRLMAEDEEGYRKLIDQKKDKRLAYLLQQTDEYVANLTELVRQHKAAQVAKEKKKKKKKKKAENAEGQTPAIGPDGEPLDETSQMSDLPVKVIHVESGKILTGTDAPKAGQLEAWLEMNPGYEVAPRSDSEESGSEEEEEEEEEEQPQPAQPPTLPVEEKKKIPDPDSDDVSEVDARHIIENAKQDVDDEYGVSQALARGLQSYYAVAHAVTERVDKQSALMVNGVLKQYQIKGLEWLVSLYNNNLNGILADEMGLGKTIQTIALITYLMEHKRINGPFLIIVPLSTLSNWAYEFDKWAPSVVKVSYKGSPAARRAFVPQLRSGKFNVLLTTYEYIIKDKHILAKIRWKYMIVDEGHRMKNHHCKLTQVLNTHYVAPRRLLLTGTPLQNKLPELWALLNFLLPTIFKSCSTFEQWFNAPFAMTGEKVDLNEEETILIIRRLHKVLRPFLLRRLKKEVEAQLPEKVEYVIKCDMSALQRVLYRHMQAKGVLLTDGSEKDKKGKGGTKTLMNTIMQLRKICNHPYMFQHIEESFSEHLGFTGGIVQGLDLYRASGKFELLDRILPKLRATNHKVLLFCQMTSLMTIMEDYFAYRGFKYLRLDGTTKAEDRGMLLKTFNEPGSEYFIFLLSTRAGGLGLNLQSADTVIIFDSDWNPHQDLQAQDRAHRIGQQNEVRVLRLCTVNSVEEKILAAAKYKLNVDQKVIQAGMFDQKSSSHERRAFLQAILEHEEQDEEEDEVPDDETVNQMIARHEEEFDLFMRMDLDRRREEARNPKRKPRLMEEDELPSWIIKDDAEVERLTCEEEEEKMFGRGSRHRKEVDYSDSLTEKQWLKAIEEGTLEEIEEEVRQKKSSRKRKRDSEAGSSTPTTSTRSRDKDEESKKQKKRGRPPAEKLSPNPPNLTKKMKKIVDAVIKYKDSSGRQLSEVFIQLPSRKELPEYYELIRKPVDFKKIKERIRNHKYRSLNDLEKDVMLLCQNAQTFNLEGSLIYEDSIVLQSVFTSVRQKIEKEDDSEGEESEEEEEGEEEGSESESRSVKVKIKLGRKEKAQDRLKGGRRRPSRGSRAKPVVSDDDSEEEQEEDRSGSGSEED
UniProt A2BH40: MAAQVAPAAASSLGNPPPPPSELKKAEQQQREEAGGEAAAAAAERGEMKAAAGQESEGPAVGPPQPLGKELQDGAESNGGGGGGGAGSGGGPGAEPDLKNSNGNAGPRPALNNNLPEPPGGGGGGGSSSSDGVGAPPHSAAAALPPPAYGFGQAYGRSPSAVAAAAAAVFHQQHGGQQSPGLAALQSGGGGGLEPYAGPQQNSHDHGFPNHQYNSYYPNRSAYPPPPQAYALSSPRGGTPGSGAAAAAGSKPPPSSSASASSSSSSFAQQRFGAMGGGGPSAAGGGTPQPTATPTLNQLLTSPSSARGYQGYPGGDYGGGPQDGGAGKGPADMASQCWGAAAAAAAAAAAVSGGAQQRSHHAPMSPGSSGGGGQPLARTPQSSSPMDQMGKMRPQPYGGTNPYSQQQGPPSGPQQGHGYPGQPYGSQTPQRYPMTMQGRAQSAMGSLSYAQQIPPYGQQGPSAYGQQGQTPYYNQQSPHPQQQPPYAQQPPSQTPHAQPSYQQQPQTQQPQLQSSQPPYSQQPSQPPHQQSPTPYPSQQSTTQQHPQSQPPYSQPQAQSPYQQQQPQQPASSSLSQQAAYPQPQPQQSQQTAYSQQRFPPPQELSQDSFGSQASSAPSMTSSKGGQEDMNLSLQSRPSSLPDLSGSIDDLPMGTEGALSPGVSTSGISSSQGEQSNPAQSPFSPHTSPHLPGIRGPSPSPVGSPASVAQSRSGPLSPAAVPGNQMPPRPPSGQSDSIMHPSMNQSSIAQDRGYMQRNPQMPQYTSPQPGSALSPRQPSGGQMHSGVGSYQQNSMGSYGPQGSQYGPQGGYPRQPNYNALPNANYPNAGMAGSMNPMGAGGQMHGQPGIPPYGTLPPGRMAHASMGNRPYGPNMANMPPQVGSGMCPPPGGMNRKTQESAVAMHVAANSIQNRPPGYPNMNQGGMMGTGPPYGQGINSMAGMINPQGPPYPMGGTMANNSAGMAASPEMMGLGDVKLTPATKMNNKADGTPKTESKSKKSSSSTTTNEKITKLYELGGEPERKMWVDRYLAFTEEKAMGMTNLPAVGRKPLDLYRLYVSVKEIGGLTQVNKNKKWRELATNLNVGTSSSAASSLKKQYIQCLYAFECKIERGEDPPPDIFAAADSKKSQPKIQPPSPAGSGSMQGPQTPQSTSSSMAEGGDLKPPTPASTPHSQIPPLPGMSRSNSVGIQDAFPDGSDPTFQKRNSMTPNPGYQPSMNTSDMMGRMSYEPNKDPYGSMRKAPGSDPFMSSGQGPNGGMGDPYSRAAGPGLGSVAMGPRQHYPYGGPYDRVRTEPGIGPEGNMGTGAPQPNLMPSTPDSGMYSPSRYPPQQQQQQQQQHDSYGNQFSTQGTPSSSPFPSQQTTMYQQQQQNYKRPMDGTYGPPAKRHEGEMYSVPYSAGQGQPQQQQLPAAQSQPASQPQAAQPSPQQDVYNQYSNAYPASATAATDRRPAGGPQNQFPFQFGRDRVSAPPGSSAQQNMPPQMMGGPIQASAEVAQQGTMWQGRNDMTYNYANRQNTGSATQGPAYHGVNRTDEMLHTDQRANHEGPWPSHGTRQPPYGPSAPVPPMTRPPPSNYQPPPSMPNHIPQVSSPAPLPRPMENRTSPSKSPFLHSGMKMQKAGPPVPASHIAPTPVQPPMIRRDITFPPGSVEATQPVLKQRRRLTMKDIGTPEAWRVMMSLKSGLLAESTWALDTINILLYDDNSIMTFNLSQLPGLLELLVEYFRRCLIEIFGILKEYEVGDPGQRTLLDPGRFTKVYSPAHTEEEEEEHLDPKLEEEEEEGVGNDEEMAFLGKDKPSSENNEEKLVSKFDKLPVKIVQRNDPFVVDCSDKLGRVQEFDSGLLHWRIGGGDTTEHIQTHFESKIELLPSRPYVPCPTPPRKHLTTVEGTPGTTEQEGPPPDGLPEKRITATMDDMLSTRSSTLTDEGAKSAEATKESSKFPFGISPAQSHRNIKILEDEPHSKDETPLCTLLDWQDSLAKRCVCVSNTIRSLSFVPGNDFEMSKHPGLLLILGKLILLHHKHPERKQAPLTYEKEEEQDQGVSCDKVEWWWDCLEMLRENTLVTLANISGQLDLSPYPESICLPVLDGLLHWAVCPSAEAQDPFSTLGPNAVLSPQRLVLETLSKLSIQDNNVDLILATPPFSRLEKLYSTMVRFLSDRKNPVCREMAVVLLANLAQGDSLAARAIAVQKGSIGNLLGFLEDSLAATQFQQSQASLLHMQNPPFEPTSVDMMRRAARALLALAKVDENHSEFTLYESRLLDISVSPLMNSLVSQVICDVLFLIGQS
UniProt Q9Z0Z7: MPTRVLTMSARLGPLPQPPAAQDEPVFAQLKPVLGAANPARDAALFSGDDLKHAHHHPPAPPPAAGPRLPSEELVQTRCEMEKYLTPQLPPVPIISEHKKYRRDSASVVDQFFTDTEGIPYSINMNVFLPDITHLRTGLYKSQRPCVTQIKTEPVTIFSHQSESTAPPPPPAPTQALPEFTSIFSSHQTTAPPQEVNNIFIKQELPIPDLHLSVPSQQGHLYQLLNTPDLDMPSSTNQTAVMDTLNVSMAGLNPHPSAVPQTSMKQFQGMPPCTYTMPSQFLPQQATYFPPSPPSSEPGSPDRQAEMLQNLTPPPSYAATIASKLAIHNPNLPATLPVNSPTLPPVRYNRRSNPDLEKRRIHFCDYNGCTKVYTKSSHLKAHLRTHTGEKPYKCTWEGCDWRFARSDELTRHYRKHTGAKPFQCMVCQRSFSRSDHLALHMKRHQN

Tests used:
[1] = biological target: T1, Eomesodermin/Tbr2 (Eomes) (mouse (endogenous in TSCs)) (UniProt O54839); experiment: affinity purification with mass spectrometry; RIME: wild-type TSCs fixed with 1% formaldehyde for 8 min at RT; 150 μg of pre-cleared chromatin immunoprecipitated with 15 μg of Eomes antibody (Abcam, ab23345) or rabbit IgG control; LC-MS/MS; 4 Eomes RIMEs alongside 2 IgG control RIMEs
T1 sequence: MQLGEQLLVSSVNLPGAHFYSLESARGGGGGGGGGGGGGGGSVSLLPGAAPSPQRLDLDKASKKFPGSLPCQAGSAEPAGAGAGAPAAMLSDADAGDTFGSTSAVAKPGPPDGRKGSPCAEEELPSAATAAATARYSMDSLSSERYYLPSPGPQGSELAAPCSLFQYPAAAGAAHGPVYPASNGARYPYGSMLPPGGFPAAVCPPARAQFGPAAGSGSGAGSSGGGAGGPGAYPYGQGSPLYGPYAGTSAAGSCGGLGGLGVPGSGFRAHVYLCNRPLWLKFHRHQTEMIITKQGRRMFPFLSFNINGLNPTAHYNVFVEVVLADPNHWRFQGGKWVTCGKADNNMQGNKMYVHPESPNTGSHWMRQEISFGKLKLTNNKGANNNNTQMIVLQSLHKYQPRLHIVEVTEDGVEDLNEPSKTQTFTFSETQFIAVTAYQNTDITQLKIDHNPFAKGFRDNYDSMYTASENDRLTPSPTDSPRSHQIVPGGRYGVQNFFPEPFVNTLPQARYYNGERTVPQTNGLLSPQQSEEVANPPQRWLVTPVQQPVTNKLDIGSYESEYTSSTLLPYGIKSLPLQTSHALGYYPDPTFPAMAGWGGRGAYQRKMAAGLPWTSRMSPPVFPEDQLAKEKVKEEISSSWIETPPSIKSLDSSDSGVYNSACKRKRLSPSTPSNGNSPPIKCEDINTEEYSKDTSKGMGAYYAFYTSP

[2] = biological target: T2, Eomesodermin/Tbr2 (Eomes) (mouse (endogenous in TSCs)), O54839; experiment: as above; settings: remark: other sources report otherwise
T2 chain: T1 sequence

binding [1]: binds
Molecule: Smarcc1 (from UniProt P97496 1-1104)

binding [1]: binds
Molecule: Smarcd2 (from UniProt Q99JR8 1-531)

binding [1]: binds
Molecule: Tfap2c (Ap2γ) (from UniProt Q61312 1-449)

binding [1]: binds
Molecule: Chd4 (from UniProt Q6PDQ2 1-1915)

binding [1]: binds
Molecule: Brg1 (Smarca4) (from UniProt Q3TKT4 1-1613)

binding [1]: binds
Molecule: Arid1a (from UniProt A2BH40 1-2283)

Molecule: Klf5 (from UniProt Q9Z0Z7 1-446)
binding [1]: binds

B1: Pou3f1 (Oct6) (protein, UniProt P21952 1-449)
chain: MATTAQYLPRGPGGGAGGTGPLMHPDAAAAAAAAAERLHAGAAYREVQKLMHHEWLGAGAGHPVGLAHPQWLPTGGGGGGDWAGGPHLEHGKAGGGGTGRADDGGGGGGFHARLVHQGAAHAGAAWAQGGTAHHLGPAMSPSPGAGGGHQPQPLGLYAQAAYPGGGGGGLAGMLAAGGGGAGPGLHHALHEDGHEAQLEPSPPPHLGAHGHAHGHAHAGGLHAAAAHLHPGAGGGGSSVGEHSDEDAPSSDDLEQFAKQFKQRRIKLGFTQADVGLALGTLYGNVFSQTTICRFEALQLSFKNMCKLKPLLNKWLEETDSSSGSPTNLDKIAAQGRKRKKRTSIEVGVKGALESHFLKCPKPSAHEITGLADSLQLEKEVVRVWFCNRRQKEKRMTPAAGAGHPPMDDVYAPGELGPGGGSASPPSAPPPPPPAALHHHHHHTLPGSVQ
binding [1]: binds

binding [2]: binds
B2: Smarcd1, Q61466 1-515 (protein)
chain: MAARAGFQSVAPSGGAGASGGAGVAAALGPGGTPGPPVRMGPAPGQGLYRSPMPGAAYPRPGMLPGSRMTPQGPSMGPPGYGGNPSVRPGLAQSGMDQSRKRPAPQQIQQVQQQAVQNRNHNAKKKKMADKILPQRIRELVPESQAYMDLLAFERKLDQTIMRKRLDIQEALKRPIKQKRKLRIFISNTFNPAKSDAEDGEGTVASWELRVEGRLLEDAALSKYDATKQKRKFSSFFKSLVIELDKDLYGPDNHLVEWHRTATTQETDGFQVKRPGDVNVRCTVLLMLDYQPPQFKLDPRLARLLGIHTQTRPVIIQALWQYIKTHKLQDPHEREFVLCDKYLQQIFESQRMKFSEIPQRLHALLMPPEPIIINHVISVDPNDQKKTACYDIDVEVDDTLKTQMNSFLLSTASQQEIATLDNKIHETIETINQLKTQREFMLSFARDPQGFINDWLQSQCRDLKTMTDVVGNPEEERRAEFYFQPWAQEAVCRYFYSKVQQRRQELEQALGIRNT

B3: Zfp281 (protein, UniProt Q99LI5 1-893)
chain: MKIGSGFLSGGGGPSSSGGSGSGGSSGSASGGSGGGRRAEMEPTFPQSMVMFNHRLPPVTSFTRPAGTAAPPPQCVLSSSTSAAPAAEPPPPPAPDMTFKKEPAASAAAFPSQRTSWGFLQSLVSIKQEKPADPEEQPSHHHHHHHHYGGLFAGAEERSPGLGGGEGGSHGVIQDLSLLHQHAQQQPAQHHRDVLLSSGSRTDEHGNQEPKQDANVKKAKRPKPESQGIKAKRKPSASSKPLVGEGEGAVLSPSQKPHICDHCSAAFRSSYHLRRHVLIHTGERPFQCSQCSMGFIQKYLLQRHEKIHSREKPFGCDQCSMKFIQKYHMERHKRTHSGEKPYKCDTCQQYFSRTDRLLKHRRTCGEAIAKGAASAEPGSSNHNSMGNLAVLSQGNTSSSRRKSKSKSIAIENKEHKTGKTNESQMSNNINMQSYSVEMPTVSTSGSIIGTGIDELQKRVPKLIFKKGSRKNADKSYLNFVSPLPDVVGQKSLSGKPGGSLGIVSNNSVETISLLQSTSGKQGPISSNYDDAMQFSKKRRYLPTASSNSAFSINVGHMVSQQSVIQSAGVSVLDNEAPLSLIDSSALNAEIKSCHDKSGIPDEVLQSILDQYSGKSETQKEDPFNLTEPRVDLHTSGEHSELVQEENLSPGTQTPSNDKTSMLQEYSKYLQQAFEKSTNAGFTLGHGFQFVSLSSPLHNHTLFPEKQIYTTSPLECGFGQSVTSVLPSSLPKPPFGMLFGSQPGLYLSALDATHQQLTPSQELDDLIDSQKNLETSSAFQSSSQKLTSQKEQQKNLESSTSFQIPSQELASQIDPQKDIEPRTTYQIENFAQAFGSQFKSGSRVPMTFITNSNGEVDHRVRTSVSDFSGYTNMMSDVSEPCSTRVKTPTSQSYR
binding [1]: binds

These are yes or no findings as the source states them, for the method shown. Binding seen in cells or lysates may run through a third protein. A yes stands for co-enrichment or nearness to the bait. Other partners may have been found. One block for each molecule: values may come before it.
